Laboratory results: patent US8466180B2, “Insecticidal compounds” (Syngenta Crop Protection LLC, priority 2006, dated 2013)
Some results were stated once for a whole list of compounds, not compound by compound.

Legend:
Assay type in all cases: in vivo
Spodoptera littoralis = Spodoptera littoralis (Egyptian cotton leafworm) cotton leaf disc spray test; conditions: application rate 200 ppm, sprayed cotton leaf discs, L1 larvae, 3 days after treatment; mortality, feeding behaviour, growth regulation
Heliothis virescens = Heliothis virescens (tobacco budworm) egg test on artificial diet; conditions: application rate 200 ppm (concentration in well 18 ppm), eggs 0-24 h old on artificial diet, 4 days; egg mortality, larval mortality, growth regulation
Diabrotica balteata = Diabrotica balteata (corn root worm) larval test on artificial diet; conditions: application rate 200 ppm (concentration in well 18 ppm), L2 larvae, 5 days, larval mortality, growth regulation

Compound | control of Spodoptera littoralis (Spodoptera littoralis) | control of Heliothis virescens (Heliothis virescens) | control of Diabrotica balteata (Diabrotica balteata)
Cc1cc(C(F)(C(F)(F)F)C(F)(F)F)cc(C)c1C(=O)Nc1cccc(NC(=O)c2ccccc2Br)c1 [Compound A9] | at least 80% | at least 80% | –
Cc1cc(C(F)(C(F)(F)F)C(F)(F)F)cc(C)c1C(=O)Nc1cccc(NC(=O)c2cccc(C(F)(F)F)c2F)c1 [Compound A12] | at least 80% | at least 80% | –
Cc1cc(C(F)(C(F)(F)F)C(F)(F)F)cc(C)c1C(=O)Nc1cccc(NC(=O)c2cc(Cl)ccc2Cl)c1 [Compound A13] | at least 80% | at least 80% | –
Cc1cc(C(=O)Nc2cccc(NC(=O)c3c(C)cc(C(F)(C(F)(F)F)C(F)(F)F)cc3C)c2)n(C)n1 [Compound A19] | at least 80% | – | –
Cc1cc(C(F)(C(F)(F)F)C(F)(F)F)cc(C)c1C(=O)Nc1cccc(NC(=O)c2csnn2)c1 [Compound A20] | at least 80% | – | –
Cc1cccnc1C(=O)Nc1cccc(NC(=O)c2c(C)cc(C(F)(C(F)(F)F)C(F)(F)F)cc2C)c1 [Compound A21] | at least 80% | at least 80% | –
Cc1ccccc1C(=O)Nc1cccc(NC(=O)c2c(C)cc(C(F)(C(F)(F)F)C(F)(F)F)cc2C)c1 [Compound A22] | at least 80% | at least 80% | –
Cc1cc(C(F)(C(F)(F)F)C(F)(F)F)ccc1C(=O)Nc1cccc(NC(=O)c2ccccc2)c1 [Compound A24] | at least 80% | – | –
Cc1cc(C(F)(C(F)(F)F)C(F)(F)F)cc(C)c1C(=O)Nc1cccc(NC(=O)c2ccc(N(C)C)cc2)c1 [Compound A28] | – | at least 80% | –
Cc1cc(C(F)(C(F)(F)F)C(F)(F)F)cc(C)c1C(=O)Nc1cccc(NC(=O)c2ccc(N)cc2)c1 [Compound A30] | – | at least 80% | –
Cc1cc(C(F)(C(F)(F)F)C(F)(F)F)cc(C)c1C(=O)Nc1cccc(NC(=O)c2ccccc2F)c1 [Compound A33] | – | at least 80% | –
Cc1cc(C(F)(C(F)(F)F)C(F)(F)F)cc(C)c1C(=O)Nc1cccc(NC(=O)c2ccco2)c1 [Compound A35] | at least 80% | – | –
Cc1cc(C(F)(C(F)(F)F)C(F)(F)F)cc(C)c1C(=O)Nc1cccc(NC(=O)c2ccc(OC(F)(F)F)cc2)c1 [Compound A36] | at least 80% | – | –
Cc1cc(C(F)(C(F)(F)F)C(F)(F)F)cc(C)c1C(=O)Nc1cccc(NC(=O)c2ccc(F)c(C(F)(F)F)c2)c1 [Compound A37] | – | at least 80% | –
Cc1cc(C(F)(C(F)(F)F)C(F)(F)F)cc(C)c1C(=O)Nc1cccc(NC(=O)c2ccncc2)c1 [Compound A41] | at least 80% | – | –
Cc1cc(C(F)(C(F)(F)F)C(F)(F)F)cc(C)c1C(=O)Nc1cccc(NC(=O)c2snnc2C)c1 [Compound A42] | at least 80% | – | –
Cc1cc(C(F)(C(F)(F)F)C(F)(F)F)cc(C)c1C(=O)Nc1cccc(NC(=O)c2ccc3nsnc3c2)c1 [Compound A52] | at least 80% | – | –
Cc1cc(C(F)(C(F)(F)F)C(F)(F)F)cc(C)c1C(=O)Nc1cccc(NC(=O)c2ccc3c(c2)CCO3)c1 [Compound A55] | at least 80% | at least 80% | –
Cc1cc(C(F)(C(F)(F)F)C(F)(F)F)cc(C)c1C(=O)Nc1cccc(NC(=O)c2cc(F)c(F)c(Cl)c2F)c1 [Compound A58] | – | at least 80% | –

Compound | control of Spodoptera littoralis (Spodoptera littoralis) | control of Heliothis virescens (Heliothis virescens) | control of Diabrotica balteata (Diabrotica balteata)
Cc1cc(C(F)(C(F)(F)F)C(F)(F)F)cc(C)c1C(=O)Nc1cccc(NC(=O)c2cccnc2)c1 [Compound A72] | at least 80% | at least 80% | –
Cc1cc(C(F)(C(F)(F)F)C(F)(F)F)cc(C)c1C(=O)Nc1cccc(NC(=O)c2cc(C)n(C)c2C)c1 [Compound A75] | at least 80% | – | –
Cc1cc(C(F)(C(F)(F)F)C(F)(F)F)cc(C)c1C(=O)Nc1cccc(NC(=O)c2cccs2)c1 [Compound A77] | at least 80% | – | –
CCc1cc(C(F)(C(F)(F)F)C(F)(F)F)cc(CC)c1C(=O)Nc1cccc(NC(=O)c2ccccc2C)c1 [Compound A96] | at least 80% | at least 80% | –
CCc1cc(C(F)(C(F)(F)F)C(F)(F)F)cc(CC)c1C(=O)Nc1cccc(NC(=O)c2cc(Cl)ccc2F)c1 [Compound A100] | at least 80% | at least 80% | –
CCc1cc(C(F)(C(F)(F)F)C(F)(F)F)cc(CC)c1C(=O)Nc1cccc(NC(=O)c2ccco2)c1 [Compound A101] | at least 80% | at least 80% | –
CCc1cc(C(F)(C(F)(F)F)C(F)(F)F)cc(CC)c1C(=O)Nc1cccc(NC(=O)c2ccc(F)c(C(F)(F)F)c2)c1 [Compound A103] | – | at least 80% | at least 80%
CCc1cc(C(F)(C(F)(F)F)C(F)(F)F)cc(CC)c1C(=O)Nc1cccc(NC(=O)c2ccc(C(F)(F)F)cc2)c1 [Compound A104] | – | at least 80% | –
CCc1cc(C(F)(C(F)(F)F)C(F)(F)F)cc(CC)c1C(=O)Nc1cccc(NC(=O)c2ccccc2OC)c1 [Compound A106] | at least 80% | – | –
CCc1cc(C(F)(C(F)(F)F)C(F)(F)F)cc(CC)c1C(=O)Nc1cccc(NC(=O)c2ccccc2)c1 [Compound A107] | at least 80% | at least 80% | –
CCc1cc(C(F)(C(F)(F)F)C(F)(F)F)cc(CC)c1C(=O)Nc1cccc(NC(=O)c2ccccc2C(F)(F)F)c1 [Compound A109] | – | at least 80% | –
CCc1cc(C(F)(C(F)(F)F)C(F)(F)F)cc(CC)c1C(=O)Nc1cccc(NC(=O)c2cccc(F)c2F)c1 [Compound A110] | at least 80% | at least 80% | –
Cc1cc(C(F)(C(F)(F)F)C(F)(F)F)cc(C)c1C(=O)Nc1ccc(F)c(NC(=O)c2cccc(Cl)c2)c1 [Compound B4] | – | at least 80% | –
Cc1cc(C(F)(C(F)(F)F)C(F)(F)F)cc(C)c1C(=O)Nc1ccc(F)c(NC(=O)c2ccccc2Br)c1 [Compound B8] | – | at least 80% | –
Cc1cc(C(=O)Nc2cc(NC(=O)c3c(C)cc(C(F)(C(F)(F)F)C(F)(F)F)cc3C)ccc2F)n(C)n1 [Compound B16] | at least 80% | at least 80% | –
Cc1cc(C(F)(C(F)(F)F)C(F)(F)F)cc(C)c1C(=O)Nc1cccc(NC(=O)c2cccc([N+](=O)[O-])c2)c1F [Compound C8] | at least 80% | at least 80% | –
Cc1cc(C(F)(C(F)(F)F)C(F)(F)F)cc(C)c1C(=O)Nc1cccc(NC(=O)c2ccccc2F)c1F [Compound C9] | – | at least 80% | –
Cc1cc(C(F)(C(F)(F)F)C(F)(F)F)cc(C)c1C(=O)Nc1cccc(NC(=O)c2ccccc2[N+](=O)[O-])c1F [Compound C11] | at least 80% | at least 80% | –
